Here are results for one molecule from patent US20230295226A1.

This assay concerns the target T1, asialofetuin (UniProt P12763).
T1 sequence (glycoprotein; desialylated glycans, described as L-fucose bearing, looked up): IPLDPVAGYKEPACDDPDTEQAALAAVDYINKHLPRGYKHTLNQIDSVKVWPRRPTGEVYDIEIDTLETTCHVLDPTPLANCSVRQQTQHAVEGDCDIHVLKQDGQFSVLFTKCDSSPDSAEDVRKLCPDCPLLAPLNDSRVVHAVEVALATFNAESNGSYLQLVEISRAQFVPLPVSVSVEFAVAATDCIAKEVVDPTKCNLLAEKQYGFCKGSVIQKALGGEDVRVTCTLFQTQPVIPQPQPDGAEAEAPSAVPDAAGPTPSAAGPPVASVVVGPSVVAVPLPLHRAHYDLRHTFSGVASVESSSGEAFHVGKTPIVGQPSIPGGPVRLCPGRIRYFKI
The assay can be described thus: ITC. On the technique in general: Isothermal titration calorimetry measures the heat released or taken up as one component is titrated into another.

No constants are given. Whether binding was seen depends on the method and setting. Some binding calls cover weakened binding; strength is not graded here.

Turning to YASPKCFRYPNGVLACT (cyclic through a disulfide bond Cys6-Cys16 (cyclo[C6...C16])) [Odorranalectin (OL)], the binding result was “binds”.
